Test system: expanded cord blood CD34+ cells, granulocyte (CD15+/CD14−) and monocyte (CD14+/CD15−) lineage
Assay: Myeloid (granulocyte and monocyte) Differentiation Culture after Expansion Culture (Example 38)
Format: cell-based, human
Settings: for therapeutic doses of granulocyte progenitors per banked cord blood unit: 5×10^10 cells per dose
Procedure: At days 21 and 63, CD34+ enriched cells were placed into Differentiation Cultures, described below.
Differentiation cultures were initiated using Erythroid, Myeloid (granulocyte and monocyte), and Megakaryocyte HemaTox kits from STEMCELL technologies following the manufacturer's instructions. In brief, lineage media was prepared by adding cytokine cocktails for erythrocyte (SCF, IL-3, and EPO), myeloid (i.e. mixed granulocyte/monocyte, SCF, TPO, G-CSF, and GM-CSF) or megakaryocyte (SCF, IL-6, IL-9 and TPO) lineage differentiation to their respective kits' media, then adding approximately 30-100 CD34+ cells for erythroid or myeloid cultures, or 300-1000 CD34+ cells for megakaryoid cultures. Exact cell numbers plated were quantified for later analysis. All incubations for Differentiation Culture took place at 3% oxygen (controlled by nitrogen) and 5% CO2.
Following seven days of erythroid or myeloid cultures, or ten days for megakaryoid cultures, differentiated cell output was quantified using flow cytometry. Erythroid output was quantified using anti-CD71 and anti-CD235a antibodies, and megakaryocyte lineage output was quantified using anti-CD41 and anti-CD42b antibodies. Granulocyte and monocyte lineage outputs were assessed in tandem, using CD14 and CD15 antibodies, with granulocyte lineage cells being CD15+/CD14−, and monocyte lineage cells being CD14+/CD15−.
A number of quantities were calculated to assess the effect of expansion of CD34+ cells in the +Formula I Condition on the output of lineage differentiated cells. “Per-Assayed-CD34+ Cell Output” describes the output of differentiated cells per CD34+ cell placed into Differentiation Culture, and is calculated by dividing the total number of lineage-positive cells by the input CD34+ cell number quantified at Differentiation Culture initiation at day 1, 21, or 63. “Per-expanded-day-1-CD34+ cell output” describes the number of differentiated cells of a given lineage that may be produced from a single CD34+ cell following both Expansion Cell Culture (if expanded) followed by Differentiation Culture, and is calculated by multiplying Per-Assayed-CD34+ Cell Output by the fold expansion of CD34+ cells from day 1 to the day of analysis, either day 21 or day 63. […] We calculated therapeutic units for granulocyte precursors, using 50 billion (5×10^10) cells per dose as a conservative benchmark (Valentini, C. G., Farina, F., Pagano, L., and Teofili, L. (2017). Granulocyte Transfusions: A Critical Reappraisal. Biol. Blood Marrow Transplant. 23, 2034-2041). […]

CC(C)(C)C(=O)Nc1ccc2c(c1)C(O)c1ccccc1-2 (stereo not shown) [Compound 1.010]
therapeutic doses of granulocyte progenitors per banked cord blood unit (21 days of Formula I Expansion Culture, 2×10^6 CD34+ cells per cord): 2.8 doses
therapeutic doses of granulocyte progenitors per banked cord blood unit (63 days of Formula I Expansion Culture): ~530 doses
granulocyte progenitor doses relative to Control-expanded cells (day 21): three
granulocyte progenitor doses relative to Control-expanded cells (day 63): 20 fold
